Some of the results follow.

Amino acid sequences for entries named in this document (tags omitted). A change or cut given only in a name is not applied to a line headed by its entry.
UniProt Q16595: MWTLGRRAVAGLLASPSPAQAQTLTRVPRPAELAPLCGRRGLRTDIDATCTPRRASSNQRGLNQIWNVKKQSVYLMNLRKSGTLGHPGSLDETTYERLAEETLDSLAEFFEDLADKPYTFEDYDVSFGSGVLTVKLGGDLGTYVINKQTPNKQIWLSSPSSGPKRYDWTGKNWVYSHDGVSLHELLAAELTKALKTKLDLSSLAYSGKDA
UniProt Q96CN9: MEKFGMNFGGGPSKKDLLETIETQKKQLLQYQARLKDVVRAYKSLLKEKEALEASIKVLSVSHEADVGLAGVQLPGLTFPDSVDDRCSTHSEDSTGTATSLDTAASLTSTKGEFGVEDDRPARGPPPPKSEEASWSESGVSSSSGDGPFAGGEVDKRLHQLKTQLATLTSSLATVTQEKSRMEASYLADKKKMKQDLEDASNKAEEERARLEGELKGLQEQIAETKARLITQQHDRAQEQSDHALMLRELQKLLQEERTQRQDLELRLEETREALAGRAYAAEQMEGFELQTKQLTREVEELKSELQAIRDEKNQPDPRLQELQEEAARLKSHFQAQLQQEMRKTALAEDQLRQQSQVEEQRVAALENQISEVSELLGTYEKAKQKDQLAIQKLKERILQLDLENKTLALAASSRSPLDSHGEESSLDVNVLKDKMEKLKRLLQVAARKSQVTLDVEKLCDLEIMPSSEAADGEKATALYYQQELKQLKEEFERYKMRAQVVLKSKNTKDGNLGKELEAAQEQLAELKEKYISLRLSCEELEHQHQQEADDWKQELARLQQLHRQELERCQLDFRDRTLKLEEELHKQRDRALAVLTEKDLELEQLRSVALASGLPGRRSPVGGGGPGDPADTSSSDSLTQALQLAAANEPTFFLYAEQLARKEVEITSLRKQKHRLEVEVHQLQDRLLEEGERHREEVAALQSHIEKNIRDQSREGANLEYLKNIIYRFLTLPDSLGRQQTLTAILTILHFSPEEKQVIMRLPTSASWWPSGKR
UniProt O95166, whole entry, looked up: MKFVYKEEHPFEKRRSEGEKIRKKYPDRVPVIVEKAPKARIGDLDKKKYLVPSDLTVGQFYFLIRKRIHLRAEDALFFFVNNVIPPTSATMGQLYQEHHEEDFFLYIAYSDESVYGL
UniProt P48507: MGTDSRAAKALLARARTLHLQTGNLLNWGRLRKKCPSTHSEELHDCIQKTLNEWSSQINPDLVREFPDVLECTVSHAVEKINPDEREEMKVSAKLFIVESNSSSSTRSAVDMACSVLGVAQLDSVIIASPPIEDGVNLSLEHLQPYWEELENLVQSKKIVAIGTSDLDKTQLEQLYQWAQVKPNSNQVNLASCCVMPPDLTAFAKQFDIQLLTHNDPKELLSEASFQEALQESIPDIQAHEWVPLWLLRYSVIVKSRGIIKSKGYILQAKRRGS
UniProt Q9BZ67: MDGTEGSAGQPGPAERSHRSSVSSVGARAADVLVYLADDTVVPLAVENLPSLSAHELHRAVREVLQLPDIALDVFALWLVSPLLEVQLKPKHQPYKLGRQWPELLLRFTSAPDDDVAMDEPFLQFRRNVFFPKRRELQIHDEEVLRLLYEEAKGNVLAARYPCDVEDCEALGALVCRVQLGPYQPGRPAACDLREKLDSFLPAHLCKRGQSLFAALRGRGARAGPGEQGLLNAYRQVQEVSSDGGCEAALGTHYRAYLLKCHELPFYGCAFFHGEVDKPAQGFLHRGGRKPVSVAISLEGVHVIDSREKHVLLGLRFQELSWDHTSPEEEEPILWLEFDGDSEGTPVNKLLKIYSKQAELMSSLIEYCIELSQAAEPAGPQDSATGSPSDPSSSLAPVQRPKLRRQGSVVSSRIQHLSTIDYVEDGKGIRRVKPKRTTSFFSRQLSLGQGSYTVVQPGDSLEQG
UniProt P35637: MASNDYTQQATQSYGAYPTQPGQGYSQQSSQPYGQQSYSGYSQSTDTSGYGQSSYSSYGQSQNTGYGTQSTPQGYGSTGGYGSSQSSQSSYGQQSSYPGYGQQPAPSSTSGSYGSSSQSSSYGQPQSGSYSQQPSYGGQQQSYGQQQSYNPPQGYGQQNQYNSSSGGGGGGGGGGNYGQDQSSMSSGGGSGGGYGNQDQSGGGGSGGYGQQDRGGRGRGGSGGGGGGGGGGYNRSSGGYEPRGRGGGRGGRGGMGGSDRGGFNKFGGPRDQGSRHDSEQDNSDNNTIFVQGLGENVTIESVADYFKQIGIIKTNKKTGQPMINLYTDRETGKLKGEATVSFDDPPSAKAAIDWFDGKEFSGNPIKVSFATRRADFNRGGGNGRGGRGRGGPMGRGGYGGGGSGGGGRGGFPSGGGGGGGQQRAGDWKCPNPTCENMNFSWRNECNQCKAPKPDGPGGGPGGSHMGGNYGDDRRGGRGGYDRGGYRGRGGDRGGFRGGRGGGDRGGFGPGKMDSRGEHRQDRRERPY
UniProt Q96CU9: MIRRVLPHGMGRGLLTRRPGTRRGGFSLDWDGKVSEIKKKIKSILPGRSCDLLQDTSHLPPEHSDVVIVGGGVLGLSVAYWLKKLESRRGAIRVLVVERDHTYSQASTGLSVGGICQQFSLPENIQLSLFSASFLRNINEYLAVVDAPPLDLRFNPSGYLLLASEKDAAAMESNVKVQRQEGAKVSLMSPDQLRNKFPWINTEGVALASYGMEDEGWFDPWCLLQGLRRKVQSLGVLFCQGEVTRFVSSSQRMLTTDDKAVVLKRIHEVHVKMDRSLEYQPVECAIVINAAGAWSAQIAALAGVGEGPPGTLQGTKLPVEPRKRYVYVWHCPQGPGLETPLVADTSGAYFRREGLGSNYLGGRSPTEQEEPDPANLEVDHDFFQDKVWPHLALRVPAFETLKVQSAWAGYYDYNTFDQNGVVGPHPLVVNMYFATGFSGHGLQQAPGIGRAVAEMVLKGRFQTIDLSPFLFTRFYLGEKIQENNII
UniProt P34059: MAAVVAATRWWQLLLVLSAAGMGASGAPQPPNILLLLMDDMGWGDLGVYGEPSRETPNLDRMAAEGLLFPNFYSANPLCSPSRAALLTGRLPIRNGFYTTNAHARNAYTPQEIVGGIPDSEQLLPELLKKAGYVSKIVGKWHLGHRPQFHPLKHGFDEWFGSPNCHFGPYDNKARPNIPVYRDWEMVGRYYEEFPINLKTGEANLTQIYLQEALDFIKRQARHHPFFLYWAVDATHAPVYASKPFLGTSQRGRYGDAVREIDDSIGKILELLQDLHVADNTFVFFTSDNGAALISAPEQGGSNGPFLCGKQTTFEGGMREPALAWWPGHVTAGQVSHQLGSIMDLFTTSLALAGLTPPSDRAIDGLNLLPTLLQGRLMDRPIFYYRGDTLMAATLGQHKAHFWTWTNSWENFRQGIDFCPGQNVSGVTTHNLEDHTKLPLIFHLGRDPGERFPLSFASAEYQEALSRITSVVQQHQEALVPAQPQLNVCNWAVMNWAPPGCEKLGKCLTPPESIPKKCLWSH
UniProt Q9NWZ8: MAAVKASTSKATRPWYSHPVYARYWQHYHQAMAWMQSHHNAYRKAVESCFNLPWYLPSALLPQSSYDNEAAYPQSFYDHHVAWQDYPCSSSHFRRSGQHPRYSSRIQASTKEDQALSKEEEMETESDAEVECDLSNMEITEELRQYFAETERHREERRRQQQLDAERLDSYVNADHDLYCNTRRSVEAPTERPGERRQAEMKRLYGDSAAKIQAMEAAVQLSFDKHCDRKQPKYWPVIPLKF
UniProt P02792: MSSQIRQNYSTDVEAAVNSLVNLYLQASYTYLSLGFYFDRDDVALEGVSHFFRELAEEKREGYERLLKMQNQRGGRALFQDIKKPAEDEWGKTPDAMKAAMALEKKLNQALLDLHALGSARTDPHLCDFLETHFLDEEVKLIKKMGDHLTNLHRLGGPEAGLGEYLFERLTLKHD
UniProt Q969S9: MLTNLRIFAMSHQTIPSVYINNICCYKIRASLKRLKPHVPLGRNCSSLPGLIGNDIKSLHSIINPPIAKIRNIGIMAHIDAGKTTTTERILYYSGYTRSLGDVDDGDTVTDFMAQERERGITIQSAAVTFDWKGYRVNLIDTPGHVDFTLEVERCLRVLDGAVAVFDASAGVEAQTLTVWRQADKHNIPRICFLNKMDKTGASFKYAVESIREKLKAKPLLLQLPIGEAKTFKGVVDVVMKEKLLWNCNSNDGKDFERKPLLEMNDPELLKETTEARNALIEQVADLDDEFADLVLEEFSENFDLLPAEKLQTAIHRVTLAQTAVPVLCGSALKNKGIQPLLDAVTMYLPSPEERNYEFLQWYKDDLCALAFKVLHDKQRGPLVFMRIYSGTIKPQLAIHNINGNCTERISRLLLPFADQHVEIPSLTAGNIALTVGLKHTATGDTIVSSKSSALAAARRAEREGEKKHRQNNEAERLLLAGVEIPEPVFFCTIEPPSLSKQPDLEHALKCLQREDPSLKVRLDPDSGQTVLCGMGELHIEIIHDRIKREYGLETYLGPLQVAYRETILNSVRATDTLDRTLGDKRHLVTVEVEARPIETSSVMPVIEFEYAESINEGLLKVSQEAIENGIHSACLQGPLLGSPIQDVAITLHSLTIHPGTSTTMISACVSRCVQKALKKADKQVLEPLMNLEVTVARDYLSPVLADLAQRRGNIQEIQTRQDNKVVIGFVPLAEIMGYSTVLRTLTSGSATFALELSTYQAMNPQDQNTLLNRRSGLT
UniProt O43716: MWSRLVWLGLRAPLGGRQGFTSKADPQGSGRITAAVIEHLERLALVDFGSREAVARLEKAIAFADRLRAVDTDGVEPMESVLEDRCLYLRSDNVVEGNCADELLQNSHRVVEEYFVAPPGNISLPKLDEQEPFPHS
UniProt P09958, whole entry, looked up: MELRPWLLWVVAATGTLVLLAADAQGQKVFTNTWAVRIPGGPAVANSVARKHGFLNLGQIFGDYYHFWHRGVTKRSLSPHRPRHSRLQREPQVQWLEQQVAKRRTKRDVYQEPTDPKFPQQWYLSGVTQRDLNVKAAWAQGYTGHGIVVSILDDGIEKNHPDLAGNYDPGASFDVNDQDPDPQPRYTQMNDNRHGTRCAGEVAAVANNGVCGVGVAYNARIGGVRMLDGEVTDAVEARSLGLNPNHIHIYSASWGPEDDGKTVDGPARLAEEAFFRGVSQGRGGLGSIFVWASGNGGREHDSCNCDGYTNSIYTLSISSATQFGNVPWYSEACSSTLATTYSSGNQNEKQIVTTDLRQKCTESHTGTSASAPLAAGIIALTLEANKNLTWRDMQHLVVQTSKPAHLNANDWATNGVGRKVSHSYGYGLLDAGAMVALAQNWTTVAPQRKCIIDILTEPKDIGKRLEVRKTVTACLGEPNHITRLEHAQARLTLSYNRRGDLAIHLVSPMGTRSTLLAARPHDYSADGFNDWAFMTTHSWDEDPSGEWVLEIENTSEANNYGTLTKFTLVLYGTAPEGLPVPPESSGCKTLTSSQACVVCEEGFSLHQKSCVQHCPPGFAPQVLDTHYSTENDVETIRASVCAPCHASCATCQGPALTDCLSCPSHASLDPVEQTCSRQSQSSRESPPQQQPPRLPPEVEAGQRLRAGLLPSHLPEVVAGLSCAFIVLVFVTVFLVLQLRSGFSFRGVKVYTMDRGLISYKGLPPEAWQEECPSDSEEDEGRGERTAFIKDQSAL
UniProt Q86YP4: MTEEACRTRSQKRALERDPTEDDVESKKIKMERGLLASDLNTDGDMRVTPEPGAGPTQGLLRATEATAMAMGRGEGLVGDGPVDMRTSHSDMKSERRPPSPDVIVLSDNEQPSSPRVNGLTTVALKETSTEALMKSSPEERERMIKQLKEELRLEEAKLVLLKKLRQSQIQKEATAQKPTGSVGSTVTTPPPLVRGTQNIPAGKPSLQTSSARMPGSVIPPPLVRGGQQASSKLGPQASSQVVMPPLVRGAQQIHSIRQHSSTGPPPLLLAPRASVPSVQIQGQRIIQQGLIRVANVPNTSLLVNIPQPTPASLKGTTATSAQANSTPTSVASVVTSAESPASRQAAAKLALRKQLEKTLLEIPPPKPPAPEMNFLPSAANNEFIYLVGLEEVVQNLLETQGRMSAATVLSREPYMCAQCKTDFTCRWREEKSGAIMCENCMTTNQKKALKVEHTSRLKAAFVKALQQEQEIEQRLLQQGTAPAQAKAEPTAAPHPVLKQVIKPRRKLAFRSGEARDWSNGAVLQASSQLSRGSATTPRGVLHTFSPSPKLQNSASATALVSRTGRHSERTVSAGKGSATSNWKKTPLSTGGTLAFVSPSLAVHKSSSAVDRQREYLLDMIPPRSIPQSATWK
UniProt Q13283, whole entry, looked up: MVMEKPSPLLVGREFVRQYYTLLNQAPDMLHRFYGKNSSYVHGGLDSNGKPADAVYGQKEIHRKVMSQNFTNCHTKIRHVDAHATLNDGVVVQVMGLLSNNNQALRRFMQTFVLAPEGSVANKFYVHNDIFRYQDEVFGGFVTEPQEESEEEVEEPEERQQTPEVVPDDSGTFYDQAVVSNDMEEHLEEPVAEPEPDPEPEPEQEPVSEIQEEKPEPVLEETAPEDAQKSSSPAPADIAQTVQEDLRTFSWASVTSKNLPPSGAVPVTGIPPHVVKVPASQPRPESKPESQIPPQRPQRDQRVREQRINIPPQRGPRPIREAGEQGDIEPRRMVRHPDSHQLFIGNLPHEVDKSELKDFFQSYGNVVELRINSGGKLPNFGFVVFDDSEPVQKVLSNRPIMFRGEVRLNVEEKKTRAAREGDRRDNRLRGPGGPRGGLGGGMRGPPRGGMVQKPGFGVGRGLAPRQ

Compound in one test: O=C1NC(=O)C(c2cnc3ccccn23)=C1c1cn2c3c(cc(F)cc13)CN(C(=O)N1CCCCC1)CC2
Kind of test: log2 fold change, soluble protein after heating vs DMSO (PISA); higher = thermal stabilisation; K562 lysate, 10 uM; active = over 0.2 and 3.5 SD of the protein, either way, in both replicates (recomputed). The gist of the method: (§1)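 K562 pellets were dounce-homogenised in PBS pH 7.4 with 1 mM MgCl2, and the crude extract at 1 mg/mL protein was treated with 10 μM compound for 30 min. Aliquots were heated for 3 min across 48°C-58°C, pooled, and brought to 0.5% NP-40 at 4°C; soluble protein was the supernatant after 21,000xg for 90 min. Soluble protein was quantified by TMTpro 16plex LC-MS/MS with channel sums equalised, and reported as log2 fold change in thermal stability against DMSO controls, with values from duplicates.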
Regarding FXN (UniProt Q16595), the log2 fold change was inactive: 0.058.

Take GCC1 (UniProt Q96CN9): the log2 fold change is inactive: -0.024.

Regarding GABARAP (UniProt O95166), the log2 fold change was inactive: 0.06.

For FSCN1 (UniProt Q16658), the log2 fold change was inactive: 0.008.

Regarding GCLM (UniProt P48507), the log2 fold change is inactive: 0.032.

Consider GALE (UniProt Q14376), for which the log2 fold change is inactive: -0.063.

As to FRMD8 (UniProt Q9BZ67), the log2 fold change was inactive: -0.017.

Turning to GANAB isoform 2 (UniProt Q14697), the log2 fold change was inactive: 0.007.

Regarding FUS (UniProt P35637), the log2 fold change was inactive: -0.036.

Take FOXRED1 (UniProt Q96CU9): the log2 fold change was inactive: 0.006.

For the target GFPT1 (UniProt Q06210), the log2 fold change was inactive: 0.012.

With GALK2 (UniProt Q01415), the log2 fold change is inactive: 0.029.

FRG1 (UniProt Q14331): the log2 fold change was inactive: 0.037.

On to GBE1 (UniProt Q04446), for which the log2 fold change is inactive: -0.035.

In the case of GCC2 (UniProt Q8IWJ2), the log2 fold change is inactive: 0.015.

Compound in the next test: c1cn2cc(-c3ccc4cn[nH]c4c3)nc(Nc3ccc(N4CCOCC4)cc3)c2n1 [entospletinib]
The test is described as above. The procedure, abridged: as §1
In the case of GALNS (UniProt P34059), the log2 fold change was inactive: -0.073.

Take GAPVD1 isoform 6 (UniProt Q14C86): the log2 fold change is inactive: -0.002.

With GALT (UniProt P07902), the log2 fold change is inactive: 0.

Take GEMIN8 (UniProt Q9NWZ8): the log2 fold change was inactive: 0.036.

FTL (UniProt P02792): the log2 fold change is inactive: -0.151.

Take GAB1 isoform 2 (UniProt Q13480): the log2 fold change was inactive: 0.112.

Take GCAT isoform 2 (UniProt O75600): the log2 fold change is inactive: 0.003.

For GFM2 (UniProt Q969S9), the log2 fold change was inactive: -0.095.

Take GALNT6 (UniProt Q8NCL4): the log2 fold change was inactive: -0.037.

With GATC (UniProt O43716), the log2 fold change was inactive: -0.154.

Regarding FURIN (UniProt P09958), the log2 fold change was inactive: 0.123.

Consider FPGT (UniProt O14772), for which the log2 fold change was inactive: -0.062.

Regarding GATAD2A isoform 3 (UniProt Q86YP4), the log2 fold change is inactive: -0.001.

Take FXR2 (UniProt P51116): the log2 fold change is inactive: -0.064.

As to GFM1 (UniProt Q96RP9), the log2 fold change is inactive: 0.016.

Consider GEMIN2 (UniProt O14893), for which the log2 fold change was inactive: -0.005.

In the case of FOXP4 (UniProt Q8IVH2), the log2 fold change is inactive: -0.102.

Regarding GEMIN5 (UniProt Q8TEQ6), the log2 fold change is inactive: 0.004.

For GALK1 isoform 2 (UniProt P51570), the log2 fold change was inactive: -0.088.

FYB1 isoform 3 (UniProt O15117): the log2 fold change was inactive: -0.006.

On to GDAP1 (UniProt Q8TB36), for which the log2 fold change was inactive: 0.039.

As for GALNT7 (UniProt Q86SF2), the log2 fold change was inactive: -0.034.

For GATAD2B (UniProt Q8WXI9), the log2 fold change is inactive: -0.022.

As for G3BP1 (UniProt Q13283), the log2 fold change is inactive: -0.018.

In the case of FXN (UniProt Q16595), the log2 fold change was inactive: -0.06.

With GCC1 (UniProt Q96CN9), the log2 fold change is inactive: -0.036.

With GABARAP (UniProt O95166), the log2 fold change is inactive: -0.024.

FSCN1 (UniProt Q16658): the log2 fold change is inactive: 0.006.

Regarding GCLM (UniProt P48507), the log2 fold change was inactive: 0.021.

For GALE (UniProt Q14376), the log2 fold change is inactive: 0.047.

FRMD8 (UniProt Q9BZ67): the log2 fold change was inactive: -0.081.

As for GANAB isoform 2 (UniProt Q14697), the log2 fold change was inactive: 0.

For FUS (UniProt P35637), the log2 fold change is inactive: 0.011.

With FOXRED1 (UniProt Q96CU9), the log2 fold change was inactive: -0.023.

As to GFPT1 (UniProt Q06210), the log2 fold change was inactive: 0.019.

GALK2 (UniProt Q01415): the log2 fold change was inactive: -0.009.

For the target FRG1 (UniProt Q14331), the log2 fold change was inactive: -0.02.

In the case of GBE1 (UniProt Q04446), the log2 fold change is inactive: 0.063.

With GCC2 (UniProt Q8IWJ2), the log2 fold change is inactive: 0.009.

Source of the values: the supplement of paper PMC10849652.
